Results are given in words; binding and its absence hold for the method and conditions named. Binding seen in cells or lysates may run through a third protein. Some binding calls cover weakened binding; strength is not graded here. For some assays here: Where a sequence is shown, tags or fusion partners need not be part of it.
Experiments:
Flag-CCT3 = target: T1, Flag-CCT3 (UniProt P49368); test: co-IP
T1 sequence: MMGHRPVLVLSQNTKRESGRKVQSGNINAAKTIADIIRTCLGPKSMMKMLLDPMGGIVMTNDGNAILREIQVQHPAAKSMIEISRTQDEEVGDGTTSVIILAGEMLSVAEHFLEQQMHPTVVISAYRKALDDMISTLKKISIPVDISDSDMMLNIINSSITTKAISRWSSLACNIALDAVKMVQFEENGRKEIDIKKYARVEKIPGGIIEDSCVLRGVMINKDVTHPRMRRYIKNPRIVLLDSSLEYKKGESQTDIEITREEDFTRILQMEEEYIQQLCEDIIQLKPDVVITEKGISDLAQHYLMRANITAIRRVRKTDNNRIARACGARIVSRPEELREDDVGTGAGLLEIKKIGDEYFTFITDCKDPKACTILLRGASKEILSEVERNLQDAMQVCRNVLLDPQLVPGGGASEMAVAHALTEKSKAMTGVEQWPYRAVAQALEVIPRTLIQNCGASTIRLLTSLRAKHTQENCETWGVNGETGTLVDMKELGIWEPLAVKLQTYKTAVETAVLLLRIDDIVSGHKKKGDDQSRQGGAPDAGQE

Chains of the proteins cited; added tags and fusions are not shown.
UniProt O43707, whole entry: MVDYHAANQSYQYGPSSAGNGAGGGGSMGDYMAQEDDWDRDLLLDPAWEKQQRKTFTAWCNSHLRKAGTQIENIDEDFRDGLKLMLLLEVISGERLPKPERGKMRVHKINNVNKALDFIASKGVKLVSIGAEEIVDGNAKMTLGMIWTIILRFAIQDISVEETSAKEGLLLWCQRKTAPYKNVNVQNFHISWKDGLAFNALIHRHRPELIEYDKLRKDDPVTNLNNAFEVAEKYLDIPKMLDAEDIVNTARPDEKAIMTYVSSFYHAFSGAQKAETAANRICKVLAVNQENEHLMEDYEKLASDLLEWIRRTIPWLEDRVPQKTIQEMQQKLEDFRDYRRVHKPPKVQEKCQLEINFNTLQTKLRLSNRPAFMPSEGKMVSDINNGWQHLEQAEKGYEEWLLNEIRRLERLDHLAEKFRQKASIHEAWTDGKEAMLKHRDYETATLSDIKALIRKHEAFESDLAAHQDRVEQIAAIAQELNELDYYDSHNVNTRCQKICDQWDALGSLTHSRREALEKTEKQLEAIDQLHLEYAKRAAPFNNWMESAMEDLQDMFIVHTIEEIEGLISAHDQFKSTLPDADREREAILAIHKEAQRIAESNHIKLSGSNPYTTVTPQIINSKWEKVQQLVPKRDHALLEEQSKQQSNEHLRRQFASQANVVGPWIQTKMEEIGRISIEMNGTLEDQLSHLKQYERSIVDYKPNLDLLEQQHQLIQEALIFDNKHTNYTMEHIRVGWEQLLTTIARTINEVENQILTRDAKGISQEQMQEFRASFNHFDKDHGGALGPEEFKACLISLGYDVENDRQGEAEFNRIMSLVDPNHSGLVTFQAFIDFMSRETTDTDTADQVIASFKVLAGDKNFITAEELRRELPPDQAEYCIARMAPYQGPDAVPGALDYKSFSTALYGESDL

[1] = target: T2, chaperonin containing TCP1 subunit 3 (CCT3) (human (endogenous in 97L and LM3)) (UniProt P49368); test: co-IP
T2 sequence: T1 sequence

Row | binding (Flag-CCT3) | binding [1] | Substance
1 | binds | – | Myc-ACTN4 (from UniProt O43707 1-911)
2 | – | binds | alpha-actinin-4 (ACTN4) (from UniProt O43707 1-911)
